# Data from PMC5206711.
# Sequences of proteins named here, by UniProt entry; tags and fusion partners are left off. A change or cut given only in a name is not applied to a line headed by its entry. A line that says so, or that is headed by a name, gives the form on record, which may keep a tag or linker.
# TDRD3 (co-IP with MCL-1, Supplementary Figure S4A) (Q9H7E2, form named): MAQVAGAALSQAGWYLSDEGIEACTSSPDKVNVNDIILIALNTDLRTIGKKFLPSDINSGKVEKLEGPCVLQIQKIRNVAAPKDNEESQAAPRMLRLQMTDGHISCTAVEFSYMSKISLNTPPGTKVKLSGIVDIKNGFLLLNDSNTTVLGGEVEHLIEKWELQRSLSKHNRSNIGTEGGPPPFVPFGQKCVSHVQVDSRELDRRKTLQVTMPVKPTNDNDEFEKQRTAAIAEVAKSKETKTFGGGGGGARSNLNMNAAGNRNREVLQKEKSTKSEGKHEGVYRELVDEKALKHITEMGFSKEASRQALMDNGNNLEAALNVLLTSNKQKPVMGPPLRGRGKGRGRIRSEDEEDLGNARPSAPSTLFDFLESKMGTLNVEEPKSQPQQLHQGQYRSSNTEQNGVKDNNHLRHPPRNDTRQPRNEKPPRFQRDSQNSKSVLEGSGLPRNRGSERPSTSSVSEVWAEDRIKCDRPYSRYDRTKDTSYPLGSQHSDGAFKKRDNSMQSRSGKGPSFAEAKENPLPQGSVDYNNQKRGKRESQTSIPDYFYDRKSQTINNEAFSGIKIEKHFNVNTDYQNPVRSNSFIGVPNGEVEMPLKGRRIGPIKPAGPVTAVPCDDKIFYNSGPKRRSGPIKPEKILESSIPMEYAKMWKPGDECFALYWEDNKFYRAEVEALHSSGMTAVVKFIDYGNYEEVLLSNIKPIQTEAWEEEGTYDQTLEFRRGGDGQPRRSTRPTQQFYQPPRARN
# UniProt Q07820: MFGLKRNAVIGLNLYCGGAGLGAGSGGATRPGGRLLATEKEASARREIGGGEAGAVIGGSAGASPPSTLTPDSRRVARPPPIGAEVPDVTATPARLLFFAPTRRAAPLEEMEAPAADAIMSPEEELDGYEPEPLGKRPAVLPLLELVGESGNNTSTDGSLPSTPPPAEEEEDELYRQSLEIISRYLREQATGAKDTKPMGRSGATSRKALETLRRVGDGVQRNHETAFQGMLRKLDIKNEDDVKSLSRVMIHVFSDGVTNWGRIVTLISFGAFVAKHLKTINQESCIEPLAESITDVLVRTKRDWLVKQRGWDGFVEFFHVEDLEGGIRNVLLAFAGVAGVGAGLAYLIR
# Results are given in words; binding and its absence hold for the method and conditions named. In cells and extracts the contact can be indirect. Some entries that bind do so weakly or less than the wild type.
# Target: TDRD3 (co-IP with MCL-1, Supplementary Figure S4A) (UniProt Q9H7E2)
# Experiment: co-IP; from cells; Supplementary Figure S4A, details not shown
substance,measurement,value
myeloid cell leukemia protein 1 (MCL-1) (from UniProt Q07820 1-350),binding,binds
